The assay concerns the target 3xHA-COMMD1 (UniProt Q8N668). The assay can be described thus: co-IP; HeLa lysates (Pierce IP lysis buffer with protease and phosphatase inhibitors) incubated with goat anti-HA antibody agarose beads overnight at 4°C; precipitates immunoblotted for CCDC93 and HA; co-precipitated CCDC93 normalised to the COMMD1 pulled down, three experiments. On the technique in general: A western blot detects proteins with antibodies after separation by electrophoresis.

Protein sequences, listed by entry. Tags and fused reporters are not part of them.
UniProt Q8N668: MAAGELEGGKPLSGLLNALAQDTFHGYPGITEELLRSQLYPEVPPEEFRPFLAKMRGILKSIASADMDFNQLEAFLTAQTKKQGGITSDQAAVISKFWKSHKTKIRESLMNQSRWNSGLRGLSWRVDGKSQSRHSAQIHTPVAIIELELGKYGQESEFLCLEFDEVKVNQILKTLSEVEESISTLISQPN
UniProt Q567U6: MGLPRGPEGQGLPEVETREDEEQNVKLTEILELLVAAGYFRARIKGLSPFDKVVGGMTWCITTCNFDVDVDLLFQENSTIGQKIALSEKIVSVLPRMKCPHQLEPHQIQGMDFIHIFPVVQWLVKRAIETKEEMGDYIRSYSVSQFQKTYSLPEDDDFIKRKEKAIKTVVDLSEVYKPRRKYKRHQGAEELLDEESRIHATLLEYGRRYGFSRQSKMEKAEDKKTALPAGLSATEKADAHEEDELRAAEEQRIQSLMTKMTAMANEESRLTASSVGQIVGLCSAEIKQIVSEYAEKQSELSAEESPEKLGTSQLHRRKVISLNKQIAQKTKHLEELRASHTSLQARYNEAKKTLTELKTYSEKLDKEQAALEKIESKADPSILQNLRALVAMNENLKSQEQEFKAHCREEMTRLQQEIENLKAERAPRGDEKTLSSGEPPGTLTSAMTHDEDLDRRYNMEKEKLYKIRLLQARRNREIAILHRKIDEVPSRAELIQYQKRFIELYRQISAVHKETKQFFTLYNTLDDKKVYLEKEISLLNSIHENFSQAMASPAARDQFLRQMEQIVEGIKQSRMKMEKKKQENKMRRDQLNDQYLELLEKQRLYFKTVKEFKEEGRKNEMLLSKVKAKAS

Results are given in words; binding and its absence hold for the method and conditions named. Binding seen in cells or lysates may run through a third protein. Some binding calls cover weakened binding; strength is not graded here.

With “CCDC93 (coiled-coil domain containing 93) (from UniProt Q567U6 1-631)”, the binding entry is “binds”.

The values are drawn from article PMC8816382.
